Reference: PubChem BioAssay AID720504 (National Center for Advancing Translational Sciences (NCATS), 2013)
Hit rate of the full screen: of about 360,000 compounds, about 10,000 (2.8%) were called active. The inconclusive results got no clear call from the source; some entries with a clear call stand among them for comparison. Calls come from the whole dose curve; as a rule, active = well fitted inhibition curve with a large enough effect; inconclusive = small, poorly fitted or top-dose-only effect; inactive = flat fitted curve, though single readings scatter. Where the call is inconclusive, the potency comes from a doubtful curve fit.

The chains behind the UniProt entries cited, without tags or fusion partners.
UniProt P53350, whole entry, looked up: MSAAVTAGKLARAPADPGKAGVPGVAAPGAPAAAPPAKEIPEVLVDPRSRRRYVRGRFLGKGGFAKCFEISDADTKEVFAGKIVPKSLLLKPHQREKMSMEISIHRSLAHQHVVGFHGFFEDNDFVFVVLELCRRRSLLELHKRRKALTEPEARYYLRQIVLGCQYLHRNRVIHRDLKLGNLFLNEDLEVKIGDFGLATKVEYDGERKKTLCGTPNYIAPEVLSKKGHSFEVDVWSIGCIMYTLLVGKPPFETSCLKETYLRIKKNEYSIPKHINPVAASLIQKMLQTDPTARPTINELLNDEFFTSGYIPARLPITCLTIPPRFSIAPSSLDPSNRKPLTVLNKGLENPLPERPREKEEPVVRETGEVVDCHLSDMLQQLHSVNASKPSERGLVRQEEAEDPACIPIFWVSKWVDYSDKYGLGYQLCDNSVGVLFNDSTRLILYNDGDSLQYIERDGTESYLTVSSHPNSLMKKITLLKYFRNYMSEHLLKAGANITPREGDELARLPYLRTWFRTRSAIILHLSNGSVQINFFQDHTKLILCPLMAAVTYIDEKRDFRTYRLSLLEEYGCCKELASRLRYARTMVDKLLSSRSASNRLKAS

What follows are compounds tested against Serine/threonine-protein kinase PLK1 (Homo sapiens) (UniProt P53350) (assay: qHTS for Inhibitors of PLK1-PDB (polo-like kinase 1 - polo-box domain): Primary Screen). Settings: Plk1 PBD binding of FITC phosphopeptide, fluorescence polarization.
% is set by controls: 0 for no effect and ±100 for the full control effect; potency is the fitted concentration of half-maximal effect.
Note: nearly all actives have a fitted effect of over 65% in size.
Throughout, for max response, negative = inhibition: series mostly up to about 57 µM.

Row | Compound | Potency | max response, negative = inhibition
1 | Nc1nc(N)c2[nH]c(=S)[nH]c2n1 | active: 23.8 µM | 
2 | O=C(Nc1ccc(Cl)c(Cl)c1)Nc1cc(S(=O)(=O)N2CCOCC2)ccc1N1CCCC1 | active: 16.8 µM | 
3 | CSc1ccccc1NC(=O)c1noc2c1CCC2 | inconclusive: 11.9 µM [inhibitor, partial curve] | 
4 | CCCCCCc1c(C)nc(-n2[nH]c(C)c(CCO)c2=O)[nH]c1=O | inconclusive: 26.7 µM [inhibitor, single point] | 
5 | CCOc1ccccc1CNC(=O)c1nn(CC)cc1[N+](=O)[O-] |  | inactive: -6.27%
6 | COC(=O)c1ccc(CN2CCN(C(C)C)C(CCO)C2)cc1 (stereo not given) | inconclusive: 8.44 µM [inhibitor, single point] | 
7 | Cc1ccccc1C(=O)NNS(=O)(=O)c1ccc(F)cc1 |  | inactive: -20.8%
8 | CCC[n+]1c2ccccc2cc2ccccc21 | active: 1.06 µM | 
9 | O=C(NCCCn1ccnc1)/C(=C/c1ccc(F)cc1)NC(=O)c1ccccc1 |  | inactive: -4.64%
10 | COc1ccc(NC(=O)CSc2nnc(-c3ccco3)c(-c3ccco3)n2)cc1OC | inconclusive: 29.9 µM [inhibitor, partial curve] | 
11 | Cc1sc2c(c1C)CN(C(C)(C)C)CN2C(=O)c1ccccc1 |  | inactive: -6.04%
12 | Nc1ccccc1N=Cc1ccc(-c2cccc(Cl)c2)o1 | inconclusive: 18.9 µM [inhibitor, partial curve] | 
13 | Cc1cc(NC(=O)CCCS(=O)(=O)c2nc(-c3cccs3)cc(C(F)(F)F)n2)no1 | inconclusive: 26.7 µM [inhibitor, partial curve] | 
14 | Cc1ccc2nc(N3C(=O)C(O)=C(C(=O)c4ccc(C)o4)C3c3ccc(O)cc3)sc2c1 (stereo not given) | inconclusive: 29.9 µM [inhibitor, single point] | 
15 | Nc1cc(-c2ccncc2)c[nH]c1=O | active: 29.9 µM | 
16 | CCOc1ccc(-n2c(Cc3cc(=O)[nH]c(=O)[nH]3)nnc2SCC(=O)OC)cc1 |  | inconclusive: -32.5% [inhibitor]
17 | O=C1c2oc3ccc(Cl)cc3c(=O)c2C(c2ccccn2)N1CCCN1CCOCC1 (stereo not given) |  | inconclusive: -33% [inhibitor]
18 | Cc1ccc(C2C(C#N)=C(N)OC3=C2C(=O)CCC3)s1 (stereo not given) | inconclusive: 26.7 µM [inhibitor, single point] | 
19 | O=C(CSc1nc2c(cnn2-c2ccccc2)c(=O)[nH]1)N1N=C(c2cccs2)CC1c1ccc(F)cc1 (stereo not given) | inconclusive: 26.7 µM [inhibitor, single point] | 
20 | COc1cc(/C=c2\sc3nc(=O)c(-c4ccccc4)nn3c2=O)ccc1OCCC(C)C | inconclusive: 21.2 µM [inhibitor, partial curve] | 
21 | O=C(Nc1cccc([N+](=O)[O-])c1)c1cc2ccccc2cc1O |  | inconclusive: -31.9% [inhibitor]
22 | O=c1c(Br)c(N2CCCCC2)cnn1-c1ccccc1 | inconclusive: 33.6 µM [inhibitor, single point] | 
23 | COc1ccccc1/C=C1\SC(=S)N(CCC(=O)Nc2ccc(C(=O)O)c(O)c2)C1=O | inconclusive: 26.7 µM [inhibitor, single point] | 
24 | O=C(Oc1ccc2c(=O)c(Cl)coc2c1)c1cccnc1 | inconclusive: 29.9 µM [inhibitor, partial curve] | 

From compound 8 as far as 11, as listed above:
Row | Compound | Potency | max response, negative = inhibition
8 | CCC[n+]1c2ccccc2cc2ccccc21 | active: 1.06 µM | 
9 | O=C(NCCCn1ccnc1)/C(=C/c1ccc(F)cc1)NC(=O)c1ccccc1 |  | inactive: -4.64%
10 | COc1ccc(NC(=O)CSc2nnc(-c3ccco3)c(-c3ccco3)n2)cc1OC | inconclusive: 29.9 µM [inhibitor, partial curve] | 
11 | Cc1sc2c(c1C)CN(C(C)(C)C)CN2C(=O)c1ccccc1 |  | inactive: -6.04%

(next part)

Row | Compound | Potency | max response, negative = inhibition
25 | CSc1cccc(CN2CCC(CO)(Cc3ccccc3)CC2)c1 | inconclusive: 8.44 µM [inhibitor, single point] | 
26 | Cc1cc(OC(=O)c2ccc(Cl)cc2)cc(=O)n1C | inconclusive: 23.8 µM [inhibitor, partial curve] | 
27 | NNC(=O)CNc1cccc(Br)c1 |  | inactive: -14.5%
28 | Oc1c(Br)cc(Cl)cc1C=Nc1ccccc1Br | inconclusive: 26.7 µM [inhibitor, single point] | 
29 | Cc1cc(C)c(COc2ccc(/C=N/n3c(C)n[nH]c3=S)cc2)c(C)c1 | inconclusive: 18.9 µM [inhibitor, partial curve] | 
30 | CC(C)Oc1ccc(CNCC2(O)CCOC(C)(C)C2)cc1 (stereo not given) | active: 29.9 µM | 
31 | Cc1ccc(CNC(=O)CN2C(=O)CSc3ccc(S(=O)(=O)N4CCCCC4)cc32)cc1 | inconclusive: 29.9 µM [inhibitor, partial curve] | 
32 | O=C1/C(=C\c2ccccn2)SC(=S)N1Nc1ncc(C(F)(F)F)cc1Cl | inconclusive: 23.8 µM [inhibitor, partial curve] | 
33 | COc1ccc([N+](=O)[O-])cc1NC(=O)CSc1ccccc1 | inconclusive: 23.8 µM [inhibitor, partial curve] | 
34 | Cc1nn(CC(=O)NC(C)CCc2ccccc2)c(=O)c2nn(-c3ccccc3)c(C)c12 (stereo not given) | inconclusive: 42.3 µM [inhibitor, partial curve, poor fit] | 
35 | CCCNc1c(F)c(F)c2c(C)c3ccccc3nc2c1F | inconclusive: 11.9 µM [inhibitor, partial curve] | 
36 | CC1CN(C(=O)C(C)Sc2nc3ccccc3s2)CC(C)O1 (stereo not given) | inconclusive: 29.9 µM [inhibitor, partial curve] | 
37 | Brc1ccc2ncc3ccccc3c2c1 |  | inactive: -0.495%
38 | CC(=O)CSc1nc2c(c(=O)[nH]c(=O)n2C)n1Cc1cccc(Br)c1 | active: 18.9 µM | 
39 | CC(=O)N1CCN(Cc2nc3cc(NC(=O)c4ccccc4Cl)ccc3n2C)CC1 | inconclusive: 23.8 µM [inhibitor, partial curve] | 
40 | O=C(CCN1CCCCC1)Nc1cccc(Cl)c1 | active: 26.7 µM | 
41 | CN1C(=O)N(C)C2(c3ccccc3)N(C(C)(C)C)C(=O)NC12c1ccccc1 (stereo not given) | inconclusive: 29.9 µM [inhibitor, partial curve] | 
42 | O=C(Cc1ccccc1)CC(CC(=O)c1ccccc1)c1ccccc1 (stereo not given) |  | inactive: -18.1%
43 | Cc1ccc(C)c(NC(=S)NNC(=O)c2csc3c2CCCC3)c1 | inconclusive: 35.5 µM [inhibitor, partial curve] | 
44 | CCCCNc1c(-c2ccc(SC3CCCCC3)cc2)nc2cnccn12 | inconclusive: 29.9 µM [inhibitor, single point] | 
45 | O=[N+]([O-])c1ccc(S(=O)(=O)NCCc2ccncc2)cc1 |  | inactive: -1.29%
46 | CCOC(=O)c1sc(N)nc1C(C)C | inconclusive: 26.7 µM [inhibitor, single point] | 
47 | O=C(O)/C=C\C(=O)Nc1ccc(N2CCN(c3cccc(Cl)c3)CC2)cc1 | inconclusive: 26.7 µM [inhibitor, partial curve] | 
48 | COc1ccccc1-c1ccc([C@@H]2C[C@H]3[C@H](CON3C)CN2C(=O)c2ccco2)cc1 |  | inactive: -5.11%

Looked up by structure from above (2):
Row | Compound | Potency | max response, negative = inhibition
42 | O=C(Cc1ccccc1)CC(CC(=O)c1ccccc1)c1ccccc1 (stereo not given) |  | inactive: -18.1%
36 | CC1CN(C(=O)C(C)Sc2nc3ccccc3s2)CC(C)O1 (stereo not given) | inconclusive: 29.9 µM [inhibitor, partial curve] | 

Remaining list, next part

Row | Compound | Potency | max response, negative = inhibition
49 | CCOC(=O)c1ccc(NC(=S)N2CCN(CCNC3=CC(=O)CC(C)(C)C3)CC2)cc1 | inconclusive: 8.44 µM [inhibitor, single point] | 
50 | COC(=O)CSc1nc(-c2ccccc2)c2c(c1C#N)CCCC2 | inconclusive: 23.8 µM [inhibitor, partial curve] | 
51 | COCCn1c(=S)[nH]c2sc3c(c2c1=O)CCC(C)C3 (stereo not given) | inconclusive: 33.6 µM [inhibitor, partial curve] | 
52 | COC(=O)c1ccc(C2C(C#N)=C(C)NC3=C2C(=O)CC(C)(C)C3)cc1 (stereo not given) | inconclusive: 29.9 µM [inhibitor, single point] | 
53 | NC(=O)c1c(N)sc2c1CCCC2 | active: 23.8 µM | 
54 | Cc1ccc(CCNC(=O)C2CCCN(S(=O)(=O)c3c(C)nn(C)c3C)C2)cc1 (stereo not given) | active: 26.7 µM | 
55 | N#CC1=C2SCN(Cc3ccccc3)CN2C(=O)CC1c1ccc2c(c1)OCO2 (stereo not given) | active: 18.9 µM | 
56 | O=C(c1ccco1)n1c(=S)nc2ccccn21 | active: 25.1 µM | 
57 | COc1cc(OC)cc(C(=O)NNC(=S)Nc2ccc(S(N)(=O)=O)cc2)c1 | inconclusive: 23.8 µM [inhibitor, partial curve] | 
58 | CC1(C(=O)NS(=O)(=O)c2ccc(Cl)cc2)CCN1C(=O)C1(c2ccc(Cl)cc2)CCC1 (stereo not given) | inconclusive: 67 µM [inhibitor, partial curve] | 
59 | Cc1cc(C)c(C)c(N=Nc2nc3ccccc3n2C)c1C | inconclusive: 21.2 µM [inhibitor, single point] | 
60 | OCCCn1c(C2CCCN2c2nc(-c3ccc(F)cc3)cs2)nc2cc(C(F)(F)F)ccc21 (stereo not given) | inconclusive: 8.44 µM [inhibitor, single point] | 
61 | O=C(Nc1cccc(C(F)(F)F)c1)C1CCN(S(=O)(=O)c2cccnc2)CC1 |  | inactive: 3.86%
62 | S=C(Nc1nc2c(s1)CCCC2)NC1CC1 | inconclusive: 23.8 µM [inhibitor, partial curve] | 
63 | CSc1ccc(CNC(=O)C(C)n2nc(C)c3c(C)n(-c4ccccc4)nc3c2=O)cc1 (stereo not given) | active: 21.2 µM | 
64 | CC(=NNC(=S)N1CCCCC1)c1ccccn1 | inconclusive: 2.12 µM [inhibitor, partial curve] | 
65 | COc1ccc(N2CCN(C(=O)CCCOc3cc(=O)n(C)c4ccccc34)CC2)cc1 |  | inactive: -2.34%
66 | N#Cc1c(N)sc(=S)c2c1CCCC2 | inconclusive: 16.8 µM [inhibitor, partial curve] | 
67 | CCOC(=O)c1cc2c(nc1N)CC(C)(CC)OC2 (stereo not given) | inconclusive: 21.2 µM [inhibitor, single point] | 
68 | COC(=O)c1ccc(Oc2ccc(C(F)(F)F)cn2)cc1 |  | inconclusive: -16.8% [inhibitor]
69 | CN(C)CC(CCC(CN(C)C)C(=O)c1ccccc1)C(=O)c1ccccc1 (stereo not given) | active: 13.4 µM | 
70 | CCCS(=O)(=O)c1c(S(=O)(=O)CCC)c2ccc(C(C)=O)cn2c1C(=O)OC | inconclusive: 21.2 µM [inhibitor, single point] | 
